Measured values: publication PMC7017148
No constants are given. Whether binding was seen depends on the method and setting. Binding seen in cells or lysates may run through a third protein.

Molecular target: T1, E3 ubiquitin-ligase Hakai (human (endogenous in HEK293T, ACHN, HT29, HCT116)) (UniProt Q75N03)
T1 sequence: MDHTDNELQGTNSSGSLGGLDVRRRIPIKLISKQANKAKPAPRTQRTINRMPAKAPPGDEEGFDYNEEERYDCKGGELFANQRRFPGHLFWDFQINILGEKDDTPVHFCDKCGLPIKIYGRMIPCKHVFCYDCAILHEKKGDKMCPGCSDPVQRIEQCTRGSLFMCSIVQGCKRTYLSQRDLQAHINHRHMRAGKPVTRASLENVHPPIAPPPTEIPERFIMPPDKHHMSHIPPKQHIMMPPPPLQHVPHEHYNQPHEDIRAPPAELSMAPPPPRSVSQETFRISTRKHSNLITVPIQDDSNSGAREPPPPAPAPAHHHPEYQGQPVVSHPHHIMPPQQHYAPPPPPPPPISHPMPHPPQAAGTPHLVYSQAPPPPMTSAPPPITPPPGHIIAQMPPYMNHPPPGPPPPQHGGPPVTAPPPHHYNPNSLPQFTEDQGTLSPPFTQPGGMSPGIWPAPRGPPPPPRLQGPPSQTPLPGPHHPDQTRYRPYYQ
Assay: co-IP; endogenous proteins; whole cell extracts (HEK293T, ACHN, HT29, HCT116) in 1% Triton X-100 buffer (20 mM Tris-HCl pH 7.5, 150 mM NaCl); antibody (Hakai, Hsp90 or Annexin A2) or control IgG on Protein A or Protein G PLUS agarose, 2 h at 4 °C; western blot

binding: no binding
Substance: Hsp70
